Results: PubChem BioAssay AID1671190 (National Center for Advancing Translational Sciences (NCATS), 2021)
The whole screen tested about 580,000 compounds, of which about 6,100 (1.1%) were called active. Inconclusive means that the source gave no clear call. Such entries were picked first, then a sample of the others. Calls come from the whole dose curve; as a rule, active = well fitted inhibition curve with a large enough effect; inconclusive = small, poorly fitted or top-dose-only effect, or another doubt; inactive = no such curve, though single readings can be large or run the other way. Potencies beside an inconclusive call are fits to weak or partial responses and may not hold up.

The chains behind the UniProt entries cited, without tags or fusion partners.
UniProt P18054, whole entry, looked up: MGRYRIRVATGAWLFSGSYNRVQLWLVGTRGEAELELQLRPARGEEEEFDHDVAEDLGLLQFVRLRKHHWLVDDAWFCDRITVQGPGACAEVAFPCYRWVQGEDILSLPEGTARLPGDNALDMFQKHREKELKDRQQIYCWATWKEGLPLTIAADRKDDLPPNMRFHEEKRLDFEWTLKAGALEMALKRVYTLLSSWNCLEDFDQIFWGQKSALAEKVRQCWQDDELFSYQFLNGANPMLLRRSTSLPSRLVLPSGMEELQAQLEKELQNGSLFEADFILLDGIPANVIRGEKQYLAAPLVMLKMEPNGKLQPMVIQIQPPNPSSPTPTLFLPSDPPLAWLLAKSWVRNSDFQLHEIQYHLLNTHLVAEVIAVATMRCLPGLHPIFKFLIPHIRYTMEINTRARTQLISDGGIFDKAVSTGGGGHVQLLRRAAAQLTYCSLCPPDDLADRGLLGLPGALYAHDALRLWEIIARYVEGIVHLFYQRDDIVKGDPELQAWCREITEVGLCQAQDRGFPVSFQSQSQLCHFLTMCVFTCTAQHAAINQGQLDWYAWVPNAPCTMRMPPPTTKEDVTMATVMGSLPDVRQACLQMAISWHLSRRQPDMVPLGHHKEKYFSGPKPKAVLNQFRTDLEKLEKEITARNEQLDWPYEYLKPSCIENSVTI

These compounds were tested against Polyunsaturated fatty acid lipoxygenase ALOX12 (Homo sapiens) (UniProt P18054) (assay: Primary qHTS assay for inhibitors of human arachidonate 12S-lipoxygenase (ALOX12): Round 2). Settings: purified 12hLO, xylenol orange hydroperoxide absorbance; activity change, negative = inhibition: at 108 µM (top of the series) unless noted.
Summary of the method: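 Purified human 12hLO at 150 nM in 25 mM Hepes, 0.01% Triton X-100, pH 7.0, preincubated 15 min at room temperature with compound. Reaction started with 40 uM arachidonic acid, 30 min at room temperature. Hydroperoxide measured by Fe-xylenol orange, 573/405 nm absorbance ratio.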
% is set by controls: 0 for no effect and ±100 for the full control effect; potency is the fitted concentration of half-maximal effect.

| SMILES | Potency | activity change, negative = inhibition |
| --- | --- | --- |
| Cc1ccc(C(=O)N/C(=C\c2ccc(-c3cccc([N+](=O)[O-])c3)o2)C(=O)NCCCN(C)C)cc1 | inconclusive: 89.1 µM [inhibitor, single point] | – |
| CCCCCCN1C[C@@H](O)[C@H](n2cc(COC(=O)c3ccccc3)nn2)C[C@@H]1c1ccc(OC)cc1 | inconclusive: 79.4 µM [inhibitor, single point] | – |
| CN1Cc2ncnc(NCCc3ccc(F)cc3)c2CN(c2ccc(Cl)cc2)C1=O | active: 70.8 µM | – |
| O=C(/C=C/c1ccc(Cl)c(Cl)c1)Nc1cccnc1 | inconclusive: 126 µM [inhibitor, single point] | – |
| O=C(COc1ccccc1)Nc1nc(-c2ccc(S(=O)(=O)N3CCOCC3)cc2)cs1 | inactive | – |
| O=C(Nc1nnc(-c2ccc(F)cc2)o1)C1CCN(S(=O)(=O)c2ccccc2C(F)(F)F)CC1 | inconclusive: 89.1 µM [inhibitor, single point] | – |
| O=C(CCNc1ccc(Cc2ccncc2)cc1)c1ccc([N+](=O)[O-])cc1 | inactive | – |
| NC(=O)c1ccccc1NC(=O)/C=C/C(=O)O | inconclusive: 28.2 µM [inhibitor, partial curve, poor fit] | – |
| Clc1cc(Cl)c(N/N=C/c2ccccc2I)c(Cl)c1 | inconclusive: 35.5 µM [inhibitor, partial curve, poor fit] | – |
| OC(CN1CCNCC1)Cn1c2ccc(Br)cc2c2cc(Br)ccc21 (stereo not drawn) | active: 28.2 µM | – |
| O=C(Nc1ccc(NC(=O)C2CC2)cc1)C1CCCCC1 | inconclusive: 56.2 µM [inhibitor, partial curve, poor fit] | – |
| CC1Sc2ccc(S(=O)(=O)CCC(=O)NCCC3=CCCCC3)cc2NC1=O (stereo not drawn) | inactive | – |
| Oc1cncc(-c2cccnc2)c1 | inactive | – |
| CN(Cc1cn(-c2ccccc2)nc1-c1cc2ccccc2o1)C(=O)CCC(=O)O | inactive | – |
| O=C(Nc1c(C(=O)Nc2cccc(F)c2)oc2ccccc12)c1ccc2c(c1)OCO2 | inactive | – |
| COc1ccc(C2Cn3cnc(C(=O)N4CCC(C(=O)Nc5cccc(C)c5)CC4)c3CO2)cc1 (stereo not drawn) | inconclusive: 25.1 µM [inhibitor, full curve, poor fit] | – |
| O=C(O)c1ccccc1C(=O)c1ccc(N2CCCC2)c([N+](=O)[O-])c1 | inconclusive: 112 µM [inhibitor, single point] | – |
| O=C(Nc1cccc(C(F)(F)F)c1)c1ccc(Cl)c(N2C(=O)CCS2(=O)=O)c1 | inconclusive: 6.31 µM [inhibitor, full curve] | – |
| Cc1ccc(C)c(S(=O)(=O)N2CCN(C(=O)CSc3ccccc3)CC2)c1 | inconclusive: 35.5 µM [inhibitor, partial curve, poor fit] | – |
| Cc1nc2nc(N(Cc3ccc(Cl)cc3)C(=O)c3ccco3)[nH]n2c(=O)c1Cc1ccccc1 | inconclusive: 39.8 µM [inhibitor, partial curve, poor fit] | – |
| Oc1ccccc1C(=S)N1CCN(C(=S)c2ccccc2O)CC1 | inconclusive: 56.2 µM [inhibitor, partial curve, poor fit] | – |
| CCCCN1C=C(OC(=O)c2ccc(OC)cc2)c2ccccc2S1(=O)=O | – | inconclusive: -35.6% [inhibitor] |
| Cc1onc(-c2c(F)cccc2Cl)c1C(=O)NC1CCCCCC1 | inconclusive: 50.1 µM [inhibitor, partial curve, poor fit] | – |

| SMILES | Potency | activity change, negative = inhibition |
| --- | --- | --- |
| c1ccc(-c2[nH]ncc2CN2CCc3ccccc3C2)cc1 | inconclusive: 112 µM [inhibitor, partial curve, poor fit] | – |
| Cc1ccc(C(CNC(=O)c2cc(-c3ccc4c(c3)CCCC4)on2)N2CCN(C)CC2)o1 (stereo not drawn) | inconclusive: 44.7 µM [inhibitor, partial curve, poor fit] | – |
| O=C(NC(=S)NCC1CCCO1)c1ccc(Cl)cc1 (stereo not drawn) | active: 39.8 µM | – |
| O=C(CN1CCN(c2ccc(O)cc2)CC1)NC(c1ccccc1)c1ccccc1 | active: 22.4 µM | – |
| CCOC(=O)c1cccc(NC(=O)c2cc(-c3ccc(Cl)s3)nc3ccccc23)c1 | inconclusive: 112 µM [inhibitor, partial curve, poor fit] | – |
| Cc1ccc(NS(=O)(=O)c2ccc(C(=O)N3CCCCCCC3)cc2)cc1 | inconclusive: 50.1 µM [inhibitor, partial curve, poor fit] | – |
| CCN(Cc1ccco1)C(=O)c1cc2cc(F)ccc2[nH]1 | inconclusive: 39.8 µM [inhibitor, partial curve] | – |
| Cc1ccc(/C=N/NC(=O)c2ccc(-n3cnnn3)cc2)cc1 | inconclusive: 89.1 µM [inhibitor, single point] | – |
| CC(CN1CCOCC1)c1ccccc1 (stereo not drawn) | inconclusive: 5.01 µM [inhibitor, full curve] | – |
| O=C(Nc1ccc2c(c1)OCO2)c1ccc2nc([C@@H]3O[C@H](CO)[C@H](O)[C@H](O)[C@H]3O)[nH]c2c1 | inconclusive: 112 µM [inhibitor, partial curve, poor fit] | – |
| Fc1ccc(-c2cn3c4ccccc4n(CCN4CCOCC4)c3n2)cc1 | inconclusive: 5.01 µM [inhibitor, full curve] | – |
| Cc1nc(-c2c3n(c(=O)n(CC(=O)Nc4cccc(F)c4)c2=O)CCCC3)no1 | inactive | – |
| CCS(=O)(=O)c1nc(-c2ccc(F)cc2)cc(C(F)(F)F)n1 | inconclusive: 70.8 µM [inhibitor, partial curve, poor fit] | – |
| COC(=O)c1c(C)c2c(C)cc3ccccn3c-2c1C(=O)OC | inactive | – |
| Cc1cccc(C(=O)NC2CCN(c3cc(-c4ccc(Cl)cc4)[nH]n3)C2)c1 (stereo not drawn) | inactive | – |
| O=C(C1=Cc2cc(Cl)ccc2OC1)N1CCN(S(=O)(=O)c2cc(F)ccc2F)CC1 | active: 39.8 µM | – |
| CCCn1cc(S(=O)(=O)c2ccccc2)c(=O)c2cc(F)c(N3CCCC3)cc21 | inactive | – |
| Cc1ccc(NC(=S)N2CCCN(Cc3ccc(F)cc3)C2)c(C)c1 | inconclusive: 50.1 µM [inhibitor, partial curve, poor fit] | – |
| O=c1c(/C=C(\O)c2ccccc2)nc2ccccc2n1-c1ccccc1 | inactive | – |
| CCOC(=O)c1cc(C)sc1NC(=O)CN1CCN(C(=O)c2ccco2)CC1 | inconclusive: 20 µM [inhibitor, full curve, poor fit] | – |
| CSc1ccc(/C=C/C(=O)c2ccc(NC(=O)c3ccccc3Cl)cc2)cc1 | inactive | – |
| Cn1cc(CC(=O)N2CCCc3ncc(C(=O)Nc4cccc(Cl)c4)cc32)c2ccccc21 | inactive | – |
| CCCCOCCCNC(=O)C[C@@H]1C[C@@]2(C(=O)OCC)CCCC=C2N(CCC2=CCCCC2)C1=O | inconclusive: 89.1 µM [inhibitor, single point] | – |

| SMILES | Potency | activity change, negative = inhibition |
| --- | --- | --- |
| O=C(CSc1nc2ccc(Cl)cc2[nH]1)N1N=C(c2cccs2)CC1c1ccco1 (stereo not drawn) | active: 17.8 µM | – |
| O=C1C=C[C@]23OCC[C@@]2(c2ccccc2)CCCC3=C1 | inconclusive: 158 µM [inhibitor, partial curve, poor fit] | – |
| Cc1ccc(-c2n[nH]c(=O)c3ccccc23)cc1S(=O)(=O)N1CCCC1 | inconclusive: 79.4 µM [inhibitor, single point] | – |
| O=C(Nc1ccccc1Cl)C1CCN(c2ncnc3onc(-c4ccc(F)cc4)c23)CC1 | inconclusive: 44.7 µM [inhibitor, partial curve, poor fit] | – |
| Cc1ccc(C(=O)NCC2CCCO2)o1 (stereo not drawn) | inconclusive: 35.5 µM [inhibitor, partial curve, poor fit] | – |
| O=c1c2[nH]c3ccccc3c2ncn1CCN1CCCCC1 | inconclusive: 112 µM [inhibitor, partial curve, poor fit] | – |
| NC(=O)C1=C[C@H](c2ccc3c(c2)OCO3)C[C@H](OCc2ccc(CO)cc2)O1 | inconclusive: 112 µM [inhibitor, single point] | – |
| O=C(c1ccco1)N1CCN(Cc2c(Cl)cccc2Cl)CC1 | inactive | – |
| CNC(=O)CN1CCN(c2nc(-c3ccccc3)c3ccccc3n2)CC1 | inactive | – |
| Cn1cnnc1-c1nn(C)c2c1CNCC2 | inactive | – |
| COc1cccc(N(CC(=O)NCc2ccccc2)C(=O)CCC(=O)Nc2nccs2)c1 | inconclusive: 44.7 µM [inhibitor, partial curve, poor fit] | – |
| Oc1ccc(/C=N/Nc2cc(N3CCOCC3)nc(N3CCOCC3)n2)cc1O | inconclusive: 22.4 µM [inhibitor, partial curve, poor fit] | – |
| O=C(CN(CCc1ccccc1)S(=O)(=O)c1ccc(Cl)cc1)N/N=C/c1ccc2c(c1)OCO2 | inactive | – |
| O=C(NC1CCCC1)N[C@@H]1C[C@H](CO)[C@@H](O)[C@H]1O | inactive | – |
| COc1cccc(C(=O)N2CCC(NS(=O)(=O)c3cccs3)CC2)c1 | inconclusive: 28.2 µM [inhibitor, single point] | – |
| CCOC(=O)c1csc(-c2ccc(OC)c(OC)c2)n1 | inactive | – |
| CCOCCn1c(=O)n(Cc2c(C)noc2C)c2cc(C(=O)O)cnc21 | inactive | – |
| COc1cccc(CN2CCC(C(=O)N3CCN(Cc4ccc5c(c4)OCO5)CC3)CC2)c1 | inconclusive: 1.12 µM [inhibitor, full curve, poor fit] | – |
| COc1ccc(OCCOCCN2CCN(C)CC2)cc1 | inconclusive: 1.26 µM [inhibitor, full curve] | – |
| CC(C)(C)N/N=C1\CC(c2ccccc2)Oc2ccccc21 (stereo not drawn) | inactive | – |
| COc1cccc(S(=O)(=O)N2CCCN(C(=O)C3CC3)C(c3ccccc3)CC(=O)NCC2)c1 (stereo not drawn) | inactive | – |
| CC(C)(C)c1nc(Sc2ncccc2[N+](=O)[O-])n[nH]1 | inconclusive: 100 µM [inhibitor, single point] | – |

Record cards, from the list above.
COc1cccc(CN2CCC(C(=O)N3CCN(Cc4ccc5c(c4)OCO5)CC3)CC2)c1 reads Potency: inconclusive: 1.12 µM [inhibitor, full curve, poor fit]
COC(=O)c1c(C)c2c(C)cc3ccccn3c-2c1C(=O)OC reads Potency: inactive
COc1cccc(S(=O)(=O)N2CCCN(C(=O)C3CC3)C(c3ccccc3)CC(=O)NCC2)c1 (stereo not drawn) reads Potency: inactive
O=C(O)c1ccccc1C(=O)c1ccc(N2CCCC2)c([N+](=O)[O-])c1 reads Potency: inconclusive: 112 µM [inhibitor, single point]
